In patent US12479812B2, “Fatty acid derivatives and their use” (THE UNITED STATES OF AMERICA, as represented by the …, priority 2017, dated 2025):

Assays:
[1] = UPLC-MS/MS quantitation of mediators in psoriatic lesion and control human skin; details: endogenous level; for free concentration in psoriatic lesions compared to control skin: free acid pool; for share found in the esterified lipid pool: human skin; for percent as free acid: control human skin
[2] = Chronic Daily Headache trial, plasma mediators after 12-week LA lowering diet; design: species or system human; details: 12 weeks; patients with chronic daily headache

Structure (SMILES)	free concentration in psoriatic lesions compared to control skin [1]	share found in the esterified lipid pool [1]	plasma concentration after LA lowering dietary intervention [2]	percent as free acid [1]
CCCCCC1OC1/C=C/C(=O)CCCCCCCC(=O)O (stereo not drawn) [9K-12,13E-LA, 9-keto(K)-12,13-trans-epoxy-(E)-octadecenoate]	> 30 fold	> 99%	–	–
CCCCCC1OC1C(O)/C=C\CCCCCCCC(=O)O (stereo not drawn) [11H-12,13E-LA, 11-hydroxy(H)-12,13-trans-epoxy-(E)-octadecenoate]	> 6 fold	–	significantly decreased	44.4%
CCCCCC(O)/C=C/C1OC1CCCCCCCC(=O)O (stereo not drawn) [13H-9,10E-LA, 13-hydroxy(H)-9,10-trans-epoxy-(E)-octadecenoate]	9 fold	> 99.5%	significantly decreased	0.05%
